Data source: PubChem BioAssay AID504791 (Drosophila RNAi Screening Center, 2011)
Purpose: 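Genes whose knock-down strengthens or weakens small-RNA reporter silencing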 (primary screen). Cell system: Drosophila S2-derived reporter cells. Reagents: long dsRNA against Drosophila genes, about 150-250 ng dsRNA per well (siRNA assay); about 80-120 ng (miRNA assay). Timing: about 5 days (siRNA assay); about 4 days (miRNA assay). Treatment: copper sulfate induction of reporters: 25 µM (siRNA assay); 200 mM stated (miRNA assay), 1-2 days before reading. Measurement: 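Dual luciferase assay: Renilla to firefly signal ratio in each well, scaled to the mean ratio of its plate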. Call rule: 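a well was a first-pass pick when its plate-scaled ratio rose above 1.5 (siRNA assay) or 1.6 (miRNA assay), or dropped below 0.6; a gene counted only if two separate dsRNAs agreed on retest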.
In all, the deposit lists about 23,000 reagents; shown is a random part of those with a known target gene and a result. In the full data, 199 (0.86%) are marked active. 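Plate-scaled ratios behind the calls are not deposited; printed light signals are raw; many rows marked increased or decreased are still called inactive.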 A number with no mark means an inactive call. Reagents against one gene are numbered here. Names joined by + are all predicted targets of the reagent. No sequences are given here. The record does not give: the direction of the score.

target gene	reagent no.	stable siRNA reporter change	miRNA reporter change	stable assay Renilla, run 1 (luminescence)	stable assay firefly, run 1 (luminescence)
trx	1			6907	4.45e5
E(spl)m8-HLH	1			7207	3.67e5
tous	1			18712	7.47e5
beat-IIIa	1			5219	3.64e5
beat-IIIa	2			4579	3.48e5
beat-IIIa	3			8091	5.19e5
CG31524	1			10170	7.67e5
CG31446	1			4216	3.92e5
BORCS6	1			5578	3.49e5
Tcs3	1			7114	4.07e5
CG17328	1			5343	4.00e5
CG17328	2	reporter ratio raised past the hit cutoff		1619	70415
CG4022	1			5832	2.54e5
Or71a	1			7938	3.55e5
CG12182	1			11880	4.34e5
Cpr50Ca	1			5666	3.69e5
Cpr50Ca	2			5779	3.30e5
Cpr50Ca	3			5426	3.40e5
Alg7	1			18215	1.32e6
Alg7	2			8894	4.69e5
RpL6	1			9637	4.23e5
RpL6	2			10155	4.54e5
Obp56h	1			6199	3.41e5
CG17349	1			6956	4.52e5
Chc	1			8283	4.15e5
CG14506	1			6591	3.99e5
CG15818	1			35409	4.69e5
casp	1			9051	2.91e5
CG33253	1			6320	4.69e5
CG33253	2			3331	3.87e5
BRWD3	1			9553	4.44e5
BRWD3	2			5559	3.42e5
CG5808	1			8158	3.73e5
Nep3	1			4931	3.13e5
CG3061	1			7643	3.63e5
CG32461	1			4768	3.41e5
CG43901	1			5340	3.73e5
CG43901	2			4036	2.50e5
bys	1			6892	3.94e5
fabp + sea	1			8297	5.48e5
fabp + sea	2			8959	5.45e5
ksh	1			5531	3.26e5
CCAP-R	1			7248	2.74e5
CCAP-R	2			6656	3.16e5
CG31269	1			7048	4.39e5
Gfat2	1			7978	4.13e5
CG3918	1			7026	3.33e5
CG3918	2			5591	3.81e5
CG9312	1			8655	6.01e5
hdm	1			6891	3.75e5
SK	1			4715	3.90e5
SK	2			6696	5.48e5
SK	3			5939	5.07e5
SK	4			5367	4.38e5
SK	5			8190	5.40e5
SK	6			8427	4.72e5
NaPi-T	1			6796	3.47e5
kni	1			6490	2.91e5
kni	2			3511	2.25e5
Serinc	1			9026	3.24e5
CG1896	1			7579	4.94e5
Pdzd8	1		reporter ratio lowered past the hit cutoff	6643	5.10e5
frma	1			7926	4.36e5
PDCD-5	1			8514	4.54e5
msl-3	1			6298	4.28e5
CG9624	1			8206	5.58e5
CG3502 + CG9863	1			6664	3.60e5
Sptz	1			7368	4.48e5
sug	1			8500	3.58e5
Cyp6a2	1			7406	5.16e5
CG10194	1			52510	1.41e6

Individual results from the list.
Result for RpL6 #1 in “stable assay firefly, run 1 (luminescence)”: 4.23e5
SK #3, stable assay Renilla, run 1 (luminescence) → 5939
Sptz, stable assay firefly, run 1 (luminescence) → 4.48e5
Result of CCAP-R #2 in “stable assay firefly, run 1 (luminescence)”: 3.16e5
Value for Chc in “stable assay firefly, run 1 (luminescence)”: 4.15e5
CG10194, stable assay firefly, run 1 (luminescence) → 1.41e6

Further records follow.
target gene	reagent no.	stable siRNA reporter change	miRNA reporter change	stable assay Renilla, run 1 (luminescence)	stable assay firefly, run 1 (luminescence)
Ssadh	1			8467	5.37e5
lectin-46Cb	1			5679	4.24e5
CG15696	1			7035	3.38e5
RN-tre	1			4395	2.28e5
Abp1	1			6515	3.48e5
CG32453	1			7811	3.96e5
Ras85D	1			4344	2.55e5
CG3021	1			6639	3.79e5
CG3021	2			7003	4.54e5
Edg91	1			6236	4.02e5
fog	1			7655	6.13e5
Cchl	1			7598	4.24e5
Pdf	1			3964	3.98e5
tej	1			6968	4.41e5
CG10154	1			6039	3.65e5
CG2663	1			6379	5.09e5
CG3701 (retired record)	1			6631	4.71e5
CG3701 (retired record)	2			6675	5.27e5
CG5116	1			5487	5.60e5
mRpS5	1			8727	5.15e5
yellow-f2	1			5236	4.45e5
Cyp6d4	1			8869	3.56e5
Rim	1	reporter ratio lowered past the hit cutoff		6551	5.21e5
Rim	2			7793	3.00e5
Rim	3			8147	3.85e5
Rim	4			7646	5.13e5
Rim	5			3720	3.50e5
AIMP1	1			6287	4.05e5
GstD4	1			6996	4.87e5
CG1703	1			7672	4.20e5
ACXA	1			6982	3.14e5
drd	1			5903	3.29e5
drd	2			10454	5.83e5
Psc	1			5898	4.52e5
Hers	1			7666	4.81e5
Hers	2			5038	5.26e5
